# The supplement of paper PMC3334620
# The full ranking holds about 33,000 sequences; the median of “E-score (-0.5 to 0.5)” is about -8e-05, and the highest 2% start at about 0.23. The list shows a part of the results.
# Target: T1, Nrg2 (UniProt P38082)
# T1 sequence: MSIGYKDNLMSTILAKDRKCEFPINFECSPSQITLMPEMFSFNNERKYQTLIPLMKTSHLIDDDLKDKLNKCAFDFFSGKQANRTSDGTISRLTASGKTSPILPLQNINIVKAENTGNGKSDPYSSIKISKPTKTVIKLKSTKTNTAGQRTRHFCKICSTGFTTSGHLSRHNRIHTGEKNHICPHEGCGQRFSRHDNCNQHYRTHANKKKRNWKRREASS
# Experiment: PBM E-score (8-mer binding enrichment) (E-score (-0.5 to 0.5)); higher = stronger / more preferred TF binding
# Details: protein concentration: 100 nM; construct: GST-full length
# Procedure, shortened: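 Each ungapped eight-base word and its reverse complement, pooled, received an E-score from the Universal PBM Analysis Suite. Underlying scans, normalised with masliner, recorded fluorescent anti-GST bound to GST-tagged yeast transcription factors. These were applied at about 100-200 nM to universal all-10-mer Agilent arrays double-stranded by primer extension.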
row,Sequence,PBM E-score
1,TCTTCACA,0.0559
2,ACTGAGTC,0.0506
3,GTGATATA,0.0797
4,CACCTAGC,-0.162
5,ATGAAGCC,0.0979
6,AGGAATTG,0.131
7,GGCCGCGA,-0.121
8,CAGCTGAA,0.0625
9,ATCCCGGG,0.00544
10,CCGAGTAG,0.134
11,AGTACCCA,-0.0348
12,TCCTTAAA,0.00106
13,CTGCTCCC,-0.0408
14,ATAAAGTA,0.18
15,AAAAGCTA,-0.0438
16,CACCCTCA,-0.0306
17,ACGCCCGG,-0.136
18,GGGTTTTA,0.207
19,CTTTACTC,0.144
20,CGGGGCTA,-0.204
21,AAGTCTTG,-0.145
22,GGGCGCGA,0.15
23,CTCCAAGC,0.011
24,AGAGGAAG,-0.0269
25,CATACATG,0.056

row,Sequence,PBM E-score
1,ACTCGCAA,0.028
2,ATGTTACG,-0.0968
3,CAGCCTCC,-0.333
4,CCCGCGGC,0.109
5,AAATCACG,0.0849
6,CCCTCAGC,-0.0293
7,AGCCCCGG,-0.0519
8,GGCCTCAA,0.105
9,GATCAACA,-0.0582
10,CGTGAGAC,0.0534
11,CACGAGCA,-0.145
12,AAACCTGG,-0.0117
13,ATCCGCGC,0.116
14,TCCGCAGA,0.0447
15,AATCTCGG,0.0273
16,GACCTCTA,-0.0846
17,CAAGTAGG,-0.0821
18,AAACACGC,0.071
19,GTCATAAA,0.0411
20,ACGTCGCG,-0.0773
21,GACGATCA,-0.0906
22,AACATCGC,0.0173
23,GCTTTGGA,0.12
24,AATTGGAT,0.132
25,CAACTCCA,0.0711

row,Sequence,PBM E-score
1,TAATAAGA,0.0444
2,CTTATTCA,-0.00255
3,ATTAAAAT,0.174
4,ATCCCTGG,0.302
5,CGGGACTC,-0.143
6,GACGTGGC,-0.099
7,CGGAGTAA,-0.018
8,AATAACTA,0.0916
9,CGTCGAGA,0.0768
10,AGAAATAT,0.126
11,AAAACATT,-0.0265
12,CCATTAAG,0.0243
13,GCAATGAC,-0.0908
14,TCCCACAA,0.062
15,CGGTAGTC,-0.197
16,ACCAGGCG,-0.171
17,GAAGTCTA,-0.109
18,ATGCAAGA,0.0997
19,AGGATAAT,0.0367
20,AACATCTT,-0.209
21,AGCATCGA,0.0713
22,TGTGCGAA,-0.0723
23,CTGCCCGC,0.214
24,GACCTTTA,-0.0218
25,GCACGGGA,-0.0549

row,Sequence,PBM E-score
1,GAAGCGTA,0.0412
2,CGGTTATA,-0.0458
3,AACTGGAT,0.124
4,AATCTATC,0.0626
5,ACTGAGGC,0.0289
6,CAGTGCCC,0.0474
7,AATACTCC,-0.148
8,CTTATCCC,-0.119
9,GAACTAAC,0.0869
10,CGTCGGGC,-0.203
11,CGATAACC,0.0568
12,GCCTCTAA,-0.113
13,CCTTTCCA,0.00451
14,ATCCATCA,0.092
15,GGTCAGAC,-0.087
16,ATTTTGTC,0.0375
17,GGCGAGAC,-0.0299
18,AAGTTATT,0.135
19,CAGTCGAA,-0.0564
20,GATCTGAA,-0.0945
21,GGCCATCA,-0.0252
22,ACCTTCAT,0.0652
23,ACGCTAAA,-0.0161
24,CCTAGGAA,-0.0506
25,ATAAAGTG,0.123

# Individual results from the entries so far.
# PBM E-score, ACCTTCAT is entered as 0.0652
# PBM E-score, ACGCTAAA is entered as -0.0161
# PBM E-score, CGATAACC is entered as 0.0568
# PBM E-score, GATCTGAA is entered as -0.0945

# (next part)

row,Sequence,PBM E-score
1,CTGAAGCC,-0.22
2,AATGGAAT,0.241
3,CCTTTACG,0.0945
4,GATGTCTA,-0.156
5,CAGTACGC,0.102
6,CTGACTCA,-0.112
7,ATAGTTTC,-0.0142
8,ACTAGATA,0.15
9,CAATGTGG,0.0785
10,CTTCATTA,0.164
11,TAGCTTCA,0.0524
12,CGACATGA,0.0175
13,GGACCAAC,-0.0462
14,AGCTGACG,-0.0553
15,ATATTCTA,0.099
16,AAATGGGC,-0.0283
17,CGAGGTAC,-0.162
18,TAGTGATA,0.00245
19,CTACTTCC,-0.00085
20,CATATGTA,0.0964
21,CTGTCCTC,-0.0826
22,ACGCTACG,-0.112
23,GACGTAGC,-0.192
24,CGTAAACA,0.187
25,GTATGTGA,-0.167

# Part of the list above, with tabs.
row	Sequence	PBM E-score
11	TAGCTTCA	0.0524
23	GACGTAGC	-0.192

# Later entries.

row,Sequence,PBM E-score
1,GTCAGGTA,-0.118
2,ATAGAGCA,0.148
3,ACACCCAG,-0.149
4,TCCCTTCA,-0.0593
5,AACATCGG,-0.137
6,CTATCCAA,-0.189
7,AATAAGGG,0.162
8,AGCATCTA,-0.0796
9,GGCACCTA,-0.035
10,CACATCGG,-0.142
11,AGTCGAGC,-0.156
12,AGTAATTC,0.117
13,AAACATTG,-0.0317
14,AGAGAATA,0.174
15,GCAGCCTA,-0.17
16,GTGCATTA,0.126
17,TGTATACA,0.18
18,CGAATCCA,0.0739
19,ATTTAAGC,0.0971
20,ATGAAGCA,-0.00828
21,ACTTTGAC,-0.0936
22,AACCCAAC,0.113
23,ACTAGAAA,-0.105
24,GATTCCTA,0.101
25,TAGTCCCA,-0.0666

row,Sequence,PBM E-score
1,CATTAGCG,0.0287
2,AGCGCATG,-0.0295
3,AGAGATGA,0.00238
4,ATGCTCAG,0.0987
5,AGCAGAAA,0.0272
6,GTTCATGA,0.222
7,CTCAATAC,0.131
8,CATCAACC,0.0872
9,CATTTTGC,0.116
10,GGTCAACA,0.112
11,AGGGATAC,0.115
12,AACCAGCG,0.0992
13,CCTTTTCC,-0.0827
14,GTTGCTGA,0.0921
15,ACAAACAC,0.144
16,AAACGAAC,0.119
17,CGCTACCA,-0.0584
18,GGAGATGA,0.0613
19,TACGAGCA,-0.201
20,GGTGATGA,0.155
21,CAACACCA,0.00927
22,CAATGAGC,0.102
23,AAGTCATT,-0.0544
24,AGAGGTAG,-0.09
25,TATAAAAA,0.164

row,Sequence,PBM E-score
1,ACCGCTAC,-0.201
2,AGTCGCCC,-0.148
3,CGAGCCCA,0.0239
4,CGGCGTCC,-0.0357
5,AGTAGTTA,0.0579
6,GTAAAACA,0.0875
7,CTCGAGAA,-0.069
8,ATGCTAGG,-0.0599
9,CGCTATGA,0.11
10,AGTCGGAT,0.139
11,CGGCATCA,-0.144
12,GCTGGTAA,-0.145
13,ATAAGGAT,0.15
14,CGTAATGA,-0.038
15,CTTGAAGA,-0.153
16,ACAGCTTA,0.0742
17,ACTATACA,0.0287
18,TAATATGA,0.0376
19,CGAGGGTA,0.0487
20,TGATCCAA,0.197
21,AAGTGGCC,0.0419
22,ATTGCGTA,0.145
23,ATAGCTAT,-0.047
24,CATCCGCG,0.0619
25,AATGACGT,-0.0446

row,Sequence,PBM E-score
1,AAGTACTA,0.13
2,GTCTGACA,0.0221
3,ACGCGTCA,0.0474
4,GAATCCGC,-0.0144
5,ACCCAGGG,0.0967
6,TAACATCA,0.043
7,CCGACCGC,-0.0719
8,TAGGACGA,-0.122
9,AGACCGTG,-0.0909
10,ACGTGAGC,-0.0241
11,AATCTACT,0.117
12,GCATCGAA,-0.0124
13,GCATCACA,-0.0237
14,GTCTTGCA,0.0101
15,AGCTCGCC,0.108
16,ATTCGTGG,0.133
17,CTGCGGGA,-0.122
18,GCCTACAC,-0.16
19,CGAAACAG,0.0953
